This is one part of the list.
target: OsWRKY34 (Oryza sativa, UniProt Q0JBA9 1-250); assay: protein-binding microarray (RPBM); PBS, 2% BSA, 51.3 ng/ul salmon testes DNA, 50 uM zinc acetate, 200 nM TF, 25 C, 1 h; high values mean tight binding; settings: protein: recombinant; tags: N-terminal polyhistidine and DsRed monomer fusion (pET32a); label: CyDye5-dUTP incorporated in the synthesized complementary strand; 3' TTTTT single-stranded linker to array surface; dsDNA, one strand shown
How it was run: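 Per-feature fluorescence intensity (arbitrary units), read on an Axon 4000B scanner, is the binding signal. Transcription factors carrying an N-terminal polyhistidine tag and DsRed fusion were expressed in E. coli BL21-CodonPlus and purified on Ni–NTA. A custom Agilent array, made double-stranded by primer extension with Cy5-dUTP and blocked with 2% BSA, was incubated with 200 nM protein in PBS, 2% BSA, salmon testes DNA and 50 µM zinc acetate at 25 °C for 1 h and then washed.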

Chains of the proteins cited; added tags and fusions are not shown.
UniProt Q0JBA9, entry or part of it: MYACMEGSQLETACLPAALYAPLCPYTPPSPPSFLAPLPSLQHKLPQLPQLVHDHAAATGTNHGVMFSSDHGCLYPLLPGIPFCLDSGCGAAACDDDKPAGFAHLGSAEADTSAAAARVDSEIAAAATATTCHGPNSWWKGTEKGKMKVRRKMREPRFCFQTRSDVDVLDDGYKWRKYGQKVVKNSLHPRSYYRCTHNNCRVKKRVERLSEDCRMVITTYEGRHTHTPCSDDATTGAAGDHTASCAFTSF

Sequence | binding signal
ACATGCGACGATCTTCTGTGTGGAGTTGGTTTCAGTGGGGCGGAGTCACCTAGTGCAG | 8270 fluorescence intensity (a.u.)
GAGTGTATTTCATCTCAAGTTAGCATGCGAGTTTTTTTTACGGAGTCACCTAGTGCAG | 8210 fluorescence intensity (a.u.)
CATTAAACTTTAAACAGTTTGACTTTGGTCAAAGTCAAAACGGAGTCACCTAGTGCAG | 13100 fluorescence intensity (a.u.)
GCTATCACCCCAAGTACATCACTAGTATACATTATATTTTCGGAGTCACCTAGTGCAG | 8500 fluorescence intensity (a.u.)
TTTTTTGCTGTAAATACTTTTTCTCCTTTTTTATAAAATACGGAGTCACCTAGTGCAG | 8580 fluorescence intensity (a.u.)
GTTTTCATACTTCCACGCCTCATGTTCCATCATCGTTTCACGGAGTCACCTAGTGCAG | 11700 fluorescence intensity (a.u.)
GGTTAGGTTTTTTTATAGAGGGAGTAGTATGCAATTATTTCGGAGTCACCTAGTGCAG | 9450 fluorescence intensity (a.u.)
ATCGCCCGTGTCTTGTGTGATTTCACTCTCGCGAACCTTCCGGAGTCACCTAGTGCAG | 13300 fluorescence intensity (a.u.)
GGGCTTGGAGATCCCGTATATGGGCCCCATCTTCTCCACTCGGAGTCACCTAGTGCAG | 9300 fluorescence intensity (a.u.)
ATCTCTTTTCCAGCGGATCACACGGCTCTCTGGTTCAGAGCGGAGTCACCTAGTGCAG | 8780 fluorescence intensity (a.u.)
AACCGTTTTTCAAAATTTCTAGCCCTTGCTATTCAGGTTTCGGAGTCACCTAGTGCAG | 8620 fluorescence intensity (a.u.)
GCCAGTTCACTTTGTCATTGTCCTTCTTGTTCTAGAGATGCGGAGTCACCTAGTGCAG | 9210 fluorescence intensity (a.u.)
TGCTGTTTTACCATTTAGTCGTACGCCGGTGGGACACCTACGGAGTCACCTAGTGCAG | 9460 fluorescence intensity (a.u.)
CCCACGTATTCCCCACCTTATCTCACTGTCTCGTGGGCCCCGGAGTCACCTAGTGCAG | 10500 fluorescence intensity (a.u.)
GCCCGCACGGGAGGGAGGGAGGGAGGGAGCCCTCTCTCAACGGAGTCACCTAGTGCAG | 8800 fluorescence intensity (a.u.)
CCGACTGCCGCAAGCAATCTCCTGACCAACACTACCACATCGGAGTCACCTAGTGCAG | 8140 fluorescence intensity (a.u.)
TCAACCTAGGCACATCTGGCCATGCACGTCTCCGGCACTCCGGAGTCACCTAGTGCAG | 8510 fluorescence intensity (a.u.)
TTTCTTTCTGGTTTCGTCACTGATGTTAAATTATGTCTTTCGGAGTCACCTAGTGCAG | 8270 fluorescence intensity (a.u.)
GCCGCGACGTGACGTGACGTCACGCATTTGTCACTTTCTCCGGAGTCACCTAGTGCAG | 8980 fluorescence intensity (a.u.)
ACGAAGCCCTCGCCGCCGCTGCGATGTAACGGTTTCCCTCCGGAGTCACCTAGTGCAG | 8050 fluorescence intensity (a.u.)
TATTTCGATTTGATGGCTTCCTGTTGCTTTTCCTGTTAATCGGAGTCACCTAGTGCAG | 14000 fluorescence intensity (a.u.)

Sequence | binding signal
GTTCATTGATGAGTGTGTAACTATACTAGGTTGCTTGCTTCGGAGTCACCTAGTGCAG | 8310 fluorescence intensity (a.u.)
TCATCTCCTATTTTGCAATTTTTGTAGTTATTTTCAGGTACGGAGTCACCTAGTGCAG | 10300 fluorescence intensity (a.u.)
GTCGTTGTTGCTAGCTTGCCACGCCATGCTGCTCGCTTCTCGGAGTCACCTAGTGCAG | 8390 fluorescence intensity (a.u.)
TCATCGCCACCATCCACGACGCCTTCGCTGCACCCGCCATCGGAGTCACCTAGTGCAG | 9280 fluorescence intensity (a.u.)
GGAATTAGACGACCTTTTCTACATGCATATAGTACTTGACCGGAGTCACCTAGTGCAG | 8350 fluorescence intensity (a.u.)
CACCTGACAAGCCAAATGTTGCACGCTTTTGAAATTATCTCGGAGTCACCTAGTGCAG | 10600 fluorescence intensity (a.u.)
TGGCGTATCATACCATGCCCTCGTCGCAACTCGTACAATACGGAGTCACCTAGTGCAG | 10900 fluorescence intensity (a.u.)
CTCGTGGTCAAATCTGAATATCCGATACTTCCGTTTCAAACGGAGTCACCTAGTGCAG | 8300 fluorescence intensity (a.u.)
ATGCAGTGTGCCTACGACCACCAAGGTCCACACACCTGCTCGGAGTCACCTAGTGCAG | 8200 fluorescence intensity (a.u.)
GCGATTTTTTTTCTTCCTCACCAGAACAAATCTTGTAATACGGAGTCACCTAGTGCAG | 8100 fluorescence intensity (a.u.)
GTATGTGCACCTTGTTGTTTGTTTGGATTTGATTGGAGATCGGAGTCACCTAGTGCAG | 8790 fluorescence intensity (a.u.)
CCATCACTAGTTCCCTACCGTACTACTACTCCTACCGTACCGGAGTCACCTAGTGCAG | 12700 fluorescence intensity (a.u.)
AAACATCACCGCACCACACCGCGCACAACCCACCACATATCGGAGTCACCTAGTGCAG | 12700 fluorescence intensity (a.u.)
AAGTACCCACCCACCACCACCACCACCACGCAAGAACCGCCGGAGTCACCTAGTGCAG | 9730 fluorescence intensity (a.u.)
CTCTTTCTAGCTCATTGCTTTTGCTAGACTCGATATTTTACGGAGTCACCTAGTGCAG | 8420 fluorescence intensity (a.u.)
TCTCATGTGGATTTGGGTGTATTACTCATCTTCACATCTACGGAGTCACCTAGTGCAG | 8130 fluorescence intensity (a.u.)
AGATGCCTTTTTGTGGGTGGGAAATCATTTCCATTTCCAACGGAGTCACCTAGTGCAG | 8690 fluorescence intensity (a.u.)
AACCCACACGCCTCGCTGCCTCGATTGATTGATTGATTCCCGGAGTCACCTAGTGCAG | 11800 fluorescence intensity (a.u.)
TATATATATATCTGTCCGTCCGTCCTACTTGTCAAATCCACGGAGTCACCTAGTGCAG | 8850 fluorescence intensity (a.u.)
GACCTGGGCTGGGGCAATGCCTGGTTTTCTTTGGGCTAATCGGAGTCACCTAGTGCAG | 9530 fluorescence intensity (a.u.)
TGCTTCAGTATATTCTCTGCTTCACCTGTCTCTCGCCTGCCGGAGTCACCTAGTGCAG | 10800 fluorescence intensity (a.u.)

Some of the entries above in another layout.
Sequence	binding signal
TCATCTCCTATTTTGCAATTTTTGTAGTTATTTTCAGGTACGGAGTCACCTAGTGCAG	10300 fluorescence intensity (a.u.)
GTCGTTGTTGCTAGCTTGCCACGCCATGCTGCTCGCTTCTCGGAGTCACCTAGTGCAG	8390 fluorescence intensity (a.u.)
TCATCGCCACCATCCACGACGCCTTCGCTGCACCCGCCATCGGAGTCACCTAGTGCAG	9280 fluorescence intensity (a.u.)
CTCGTGGTCAAATCTGAATATCCGATACTTCCGTTTCAAACGGAGTCACCTAGTGCAG	8300 fluorescence intensity (a.u.)
ATGCAGTGTGCCTACGACCACCAAGGTCCACACACCTGCTCGGAGTCACCTAGTGCAG	8200 fluorescence intensity (a.u.)
GCGATTTTTTTTCTTCCTCACCAGAACAAATCTTGTAATACGGAGTCACCTAGTGCAG	8100 fluorescence intensity (a.u.)
CCATCACTAGTTCCCTACCGTACTACTACTCCTACCGTACCGGAGTCACCTAGTGCAG	12700 fluorescence intensity (a.u.)
AAACATCACCGCACCACACCGCGCACAACCCACCACATATCGGAGTCACCTAGTGCAG	12700 fluorescence intensity (a.u.)
AAGTACCCACCCACCACCACCACCACCACGCAAGAACCGCCGGAGTCACCTAGTGCAG	9730 fluorescence intensity (a.u.)
TCTCATGTGGATTTGGGTGTATTACTCATCTTCACATCTACGGAGTCACCTAGTGCAG	8130 fluorescence intensity (a.u.)
AGATGCCTTTTTGTGGGTGGGAAATCATTTCCATTTCCAACGGAGTCACCTAGTGCAG	8690 fluorescence intensity (a.u.)
TATATATATATCTGTCCGTCCGTCCTACTTGTCAAATCCACGGAGTCACCTAGTGCAG	8850 fluorescence intensity (a.u.)
GACCTGGGCTGGGGCAATGCCTGGTTTTCTTTGGGCTAATCGGAGTCACCTAGTGCAG	9530 fluorescence intensity (a.u.)
TGCTTCAGTATATTCTCTGCTTCACCTGTCTCTCGCCTGCCGGAGTCACCTAGTGCAG	10800 fluorescence intensity (a.u.)

(cont.)

Sequence | binding signal
ATGACAACCAATGCCATATATTCCATACCTCAGTCGCATGCGGAGTCACCTAGTGCAG | 8340 fluorescence intensity (a.u.)
AAACCGCGCTGCCCTGCCCTTTTCCGCCATAGCTAATCTACGGAGTCACCTAGTGCAG | 10300 fluorescence intensity (a.u.)
CCTTCGCGTCCGTCGTCCTGCTTGCTGCGGCCTGCAGCTGCGGAGTCACCTAGTGCAG | 9150 fluorescence intensity (a.u.)
TTCAGGATGAGGGAAGTGCAGAGATTGCACCTTTTTCGTTCGGAGTCACCTAGTGCAG | 8430 fluorescence intensity (a.u.)
TTCAACCTCTCCACCGGCGCCCTCGCCCGCGCCAAGCTCCCGGAGTCACCTAGTGCAG | 8190 fluorescence intensity (a.u.)
ACCCAACATTTGTTTTTTTGTTTCCACTCTTCGCAAGCCACGGAGTCACCTAGTGCAG | 8800 fluorescence intensity (a.u.)
CTTCACAGTCGCTGCCTACCTTGCCGTCCGTGATCCCGGTCGGAGTCACCTAGTGCAG | 8820 fluorescence intensity (a.u.)
ATTCGTTATACTAGGTGACATCTCATCTAATATTTGTTTACGGAGTCACCTAGTGCAG | 8120 fluorescence intensity (a.u.)
TATAGGTCCCACGCTATCTCAGTCGCCACATCAGCTAAAACGGAGTCACCTAGTGCAG | 8690 fluorescence intensity (a.u.)
CAGGGACAGTTTGGTAAATTCGCGTTGGATTGCTTCTTATCGGAGTCACCTAGTGCAG | 8650 fluorescence intensity (a.u.)
CACGCCTCATTTGGCATCGCATCTGATTGCCCTGTAGATTCGGAGTCACCTAGTGCAG | 11900 fluorescence intensity (a.u.)
CGACGCGTGCTGCTTTTGATTTTTCTTTCTTTTTCTTTTTCGGAGTCACCTAGTGCAG | 10300 fluorescence intensity (a.u.)
TGCTTAATTAATTCGTACGCTAATCCATTCTCTTTTTTTTCGGAGTCACCTAGTGCAG | 10100 fluorescence intensity (a.u.)
TTGCGGTTGGGGACGATTTTGTAACTCGATGACAAGTTGACGGAGTCACCTAGTGCAG | 13000 fluorescence intensity (a.u.)
ATACATTTTCGTTATTAAATCAGTTGTTTATTCTTTATGGCGGAGTCACCTAGTGCAG | 8290 fluorescence intensity (a.u.)
GGCATCCTACACTCTAGCTAGCCCACAGTCCGCTGCCGGCCGGAGTCACCTAGTGCAG | 8790 fluorescence intensity (a.u.)
CAGTCGTTTGTCCATCTCTCCCTCCACTACCCCGTCTCTCCGGAGTCACCTAGTGCAG | 8410 fluorescence intensity (a.u.)
CGGTTCTTGTCGTAGAAAGCTCCGTGTTATCGTTTATATTCGGAGTCACCTAGTGCAG | 8090 fluorescence intensity (a.u.)
CCCCTACCACAGAGGACTCGTTCTCTCTCTCTCCTCTCGACGGAGTCACCTAGTGCAG | 8510 fluorescence intensity (a.u.)
CTTCTGATCCGTTTGTGTCAGAGCCAAATCTTCTTCTTCTCGGAGTCACCTAGTGCAG | 8810 fluorescence intensity (a.u.)
CATCCGTTCTAGGAGGTTGTTTTCTTTGGACTTATTCCATCGGAGTCACCTAGTGCAG | 8080 fluorescence intensity (a.u.)

Sequence | binding signal
TCTGTTTGGCCGGTTTTTGCACTAAGCTAATCACGGTTTACGGAGTCACCTAGTGCAG | 9810 fluorescence intensity (a.u.)
GTCGCCGCTCGCCGCCACCTCGTCTTCCGCTGCGAGATCTCGGAGTCACCTAGTGCAG | 11300 fluorescence intensity (a.u.)
CCTTATACATTACTTAGTACTATGTTCGTTTCAGATTACGCGGAGTCACCTAGTGCAG | 8820 fluorescence intensity (a.u.)
TCGCATTCGCATCTGCTTTTTCGGCGTTCTGTTCTGTTCTCGGAGTCACCTAGTGCAG | 8370 fluorescence intensity (a.u.)
ACTTGGATCAATCCCTACCATCCGTCCACATCTATCTACTCGGAGTCACCTAGTGCAG | 10300 fluorescence intensity (a.u.)
AATCTCACCCATCCACGTGTCCCCAGATCTCATCCCCATCCGGAGTCACCTAGTGCAG | 8030 fluorescence intensity (a.u.)
CATCCCACCTGCTCCGGCGAGGGAGGGTCGGGGTCCTCAACGGAGTCACCTAGTGCAG | 8480 fluorescence intensity (a.u.)
TGCTGCTTGACATGTTTTTTTTCTTTTTCTTTTTCTTTTTCGGAGTCACCTAGTGCAG | 10700 fluorescence intensity (a.u.)
AACCGCATCATATGTATCCATGGTGGTCTTCTTTATCTTTCGGAGTCACCTAGTGCAG | 11700 fluorescence intensity (a.u.)
TTCTCGATCACCTGCCTCGAGGTCTTCTTCACCGTCTTGGCGGAGTCACCTAGTGCAG | 8950 fluorescence intensity (a.u.)
GGGCGTCGCCTCCCCTTTCTCGATCACCCGCGTATTATTACGGAGTCACCTAGTGCAG | 9030 fluorescence intensity (a.u.)
GTTTATTTGTTTTATGTTGGCTTAACTCACTGTGAATGTGCGGAGTCACCTAGTGCAG | 9780 fluorescence intensity (a.u.)
AACACAAACCTTAGGCTACGTTCTCCATGTGCCTTTCGTCCGGAGTCACCTAGTGCAG | 8800 fluorescence intensity (a.u.)
CCTTCACTTCACTCCCATTCCCATTTCCTCTCGCTCCCACCGGAGTCACCTAGTGCAG | 8560 fluorescence intensity (a.u.)
TTCCTTTTTTTTCCTATGGCCTGCTTCCATCCAACAGCATCGGAGTCACCTAGTGCAG | 9160 fluorescence intensity (a.u.)
ACGAAGAATTTCTCGCTTCGTTTCATCCCCACCATTTTTTCGGAGTCACCTAGTGCAG | 8860 fluorescence intensity (a.u.)
TTGGTAGTTGAGGGACCCGTTGTGTCTGGTTTTTCGGTTGCGGAGTCACCTAGTGCAG | 8740 fluorescence intensity (a.u.)
ATGTTGAGTATTATGTGTTTAGGGGTATATTAGTAATTTCCGGAGTCACCTAGTGCAG | 11800 fluorescence intensity (a.u.)
AAATGTCCTTGGTGGTTGGTGCTCTTTGGCCTCCTATATACGGAGTCACCTAGTGCAG | 10600 fluorescence intensity (a.u.)
GGCAGCTGCTGTTTGTATCTTTTAGGCTGGCATCCACAACCGGAGTCACCTAGTGCAG | 8330 fluorescence intensity (a.u.)
CCACACGTCCATCCAGTATCTACGTAACCCTTAATTGGTACGGAGTCACCTAGTGCAG | 8070 fluorescence intensity (a.u.)
